For this test, the target named is T1, D-3-phosphoglycerate dehydrogenase (PHGDH) (human (endogenous in T24)) (UniProt O43175).
T1 sequence: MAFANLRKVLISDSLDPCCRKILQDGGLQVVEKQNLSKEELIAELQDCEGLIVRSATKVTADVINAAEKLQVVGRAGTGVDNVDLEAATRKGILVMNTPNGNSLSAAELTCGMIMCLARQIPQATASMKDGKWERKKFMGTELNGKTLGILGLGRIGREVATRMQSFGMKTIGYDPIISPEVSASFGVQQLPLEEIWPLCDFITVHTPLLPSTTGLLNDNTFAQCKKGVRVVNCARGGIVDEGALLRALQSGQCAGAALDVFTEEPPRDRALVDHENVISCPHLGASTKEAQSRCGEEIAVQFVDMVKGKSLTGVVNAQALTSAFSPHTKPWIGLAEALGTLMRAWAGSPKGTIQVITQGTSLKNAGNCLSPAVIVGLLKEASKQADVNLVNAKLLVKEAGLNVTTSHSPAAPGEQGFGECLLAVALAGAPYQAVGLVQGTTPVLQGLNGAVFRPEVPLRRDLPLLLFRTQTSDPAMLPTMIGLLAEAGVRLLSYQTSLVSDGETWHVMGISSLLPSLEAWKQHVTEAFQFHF
As to the kind of experiment: co-IP; whole-cell lysates of T24 / BC cells (IP lysis buffer), pre-cleared; antibody to PHGDH or SYVN1 (IgG control) overnight at 4 °C, Protein A/G magnetic beads, Western blot; also after circSIRT5 overexpression (interaction enhanced). (In western blotting, separated proteins are transferred to a membrane and probed.)

By UniProt entry, the sequences of proteins in these tests, tags left out.
UniProt Q86TM6: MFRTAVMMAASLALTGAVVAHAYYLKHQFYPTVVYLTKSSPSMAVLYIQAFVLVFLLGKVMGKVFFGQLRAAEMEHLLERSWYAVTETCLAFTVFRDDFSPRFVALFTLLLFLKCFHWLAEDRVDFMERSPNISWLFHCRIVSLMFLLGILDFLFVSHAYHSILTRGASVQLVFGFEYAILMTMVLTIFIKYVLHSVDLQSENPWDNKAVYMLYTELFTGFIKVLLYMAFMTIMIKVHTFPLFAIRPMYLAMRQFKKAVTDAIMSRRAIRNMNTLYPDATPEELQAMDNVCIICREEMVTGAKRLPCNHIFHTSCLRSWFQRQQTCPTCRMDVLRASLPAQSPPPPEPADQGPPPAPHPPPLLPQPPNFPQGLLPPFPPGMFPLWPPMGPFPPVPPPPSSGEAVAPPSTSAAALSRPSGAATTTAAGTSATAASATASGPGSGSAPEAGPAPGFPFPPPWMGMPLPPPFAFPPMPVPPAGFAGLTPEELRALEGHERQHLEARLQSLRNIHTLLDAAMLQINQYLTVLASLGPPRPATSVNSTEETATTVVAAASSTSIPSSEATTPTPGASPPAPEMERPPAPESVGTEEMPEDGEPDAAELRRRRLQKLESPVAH

These are yes or no findings as the source states them, for the method shown. Binding seen in cells or lysates may run through a third protein. Some binding calls cover weakened binding; strength is not graded here.

As to “E3 ubiquitin ligase SYVN1 (from UniProt Q86TM6 1-617) (enzyme)”, the binding entry is given as “binds”.

The values are drawn from PMC11369169.
